Reference: patent US20260284208A1, “SYSTEM” (Oxford University Innovation Limited, priority 2023, published 2026)
The source gives many values for each of these; only a part stands here.

Tested on: library of 8,380 IKZF3 degrons (ZF-eGFP/mCherry reporter) in Jurkat cells
Experiment: Pooled library screen (FACS, NGS, limma voom LogFC of positive vs negative read counts)
Format: cell-based, human
Protocol: A library of 8,380 IKZF3 degrons was cloned into pLVX-Sprout to create the eGFP/mCherry protein degradation reporter plasmid pool. A lentivirus pool was then generated using the Lenti-X lentiviral vector production method.
Jurkat cells were transduced at a multiplicity of infection of <0.3 with the lentivirus vector library in order to maximise the number of cells with a single integration. Transductions were carried out in 6 well TC-treated cell culture dishes (Falcon) with 3×10^6 cells per well. Cells were incubated for 2 days at 37° C. and 5% CO2 before the supernatant was removed and replaced with fresh media. 6 days post-transduction, mCherry+ cells were isolated via FACS using the FACS Aria Fusion (BD) in a buffer containing PBS (Gibco), 2 mM EDTA (Gibco), 25 mM HEPES (Sigma) and 1% BSA (Sigma). 8 days later, cells were treated with DMSO or a thalidomide analog for 18 hours at 37° C. and 5% CO2. mCherry+GFPlow and NOT(mCherry+GFPlow) cells were sorted by FACS using the FACS Aria Fusion (BD). DMSO treated cells were used to set the mCherry+GFPlow gate and dead cells were excluded from sorting by staining cells with 1 μg/mL DAPI (ThermoFisher). gDNA was isolated using the Maxwell RSC 48 (Promega). gDNA from cells that were unsorted and untreated were also isolated to determine the library representation on the day of compound treatment. Throughout the screen >600× coverage of the library was maintained. 3 biological replicates were carried out with a new transduction taking place each time.
A two-step PCR was used where the first PCR (PCR1) amplified the integrated degron sequence from gDNA and the second PCR (PCR2) added Illumina adaptors and barcodes to permit multiplexing. See Supp F for PCR1 and PCR2 primers. Q5 Hot Start High-Fidelity 2× Master Mix (New England Biolabs) was used for both PCRs. Sufficient gDNA was amplified in PCR1 in order to maintain >600× coverage and amplicons were purified using solid phase reversible immobilization (SPRI) beads (Beckman Coulter). Purified PCR1 products were analysed on the Tapestation 4200 (Agilent) to confirm purity prior to proceeding to PCR2. Sufficient PCR1 product was amplified in PCR2 in order to maintain >600× coverage and amplicons were run on a 2% agarose TAE gel. Target bands were excised and purified using the NucleoSpin Gel and PCR Clean-up Kit (Machery Nagel). Amplicons were analysed on the Tapestation 4200 and quantified using Qubit dsDNA HS kit (ThermoFisher). PCR products were pooled and sequenced as paired-reads on the NovaSeq (Illumina) using a SP2 200 cycles kit (Illumina).
Count distributions, percentage of read mapping, library coverage and replicate correlation per sample were assessed for QC purposes.
To carry out the library screen, we used the same plasmid construct as in our earlier flow cytometry assays, but pooling all 8,380 mutants together into one Jurkat population, ensuring a copy number of one plasmid per cell (FIG. 4B). […] These GFP-negative cells were then separated from the remaining GFP-positive population using fluorescence activated cell sorting (FACS). These two populations were then sequenced and the relative abundance of every mutant in both populations compared to provide a log FC value for each mutant sequence. This value indicated how frequently a sequence is observed in the GFP-negative population relative to the GFP-positive population, and therefore how effective a degron it is for that particular IMID compound.

Work on `O=C1CCC(N2C(=O)c3ccc(N4CCOCC4)cc3C2=O)C(=O)N1` (stereo not shown) [B03] yielded a B03_logFC (degron 4300 (SEQ ID NO 3506) 46F_47W_49P_50V_52G_53A_54A_55F_67L) of 3.687, a B03_logFC (degron 4301 (SEQ ID NO 3614) 46F_47W_49P_50V_52G_53A_54C_55F_67L) of 3.444 and a B03_logFC (degron 4306 (SEQ ID NO 3480) 46F_47W_49P_50V_52G_53A_54H_55F_67L) of 3.788. It also gave a B03_logFC (degron 4311 (SEQ ID NO 3465) 46F_47W_49P_50V_52G_53A_54N_55F_67L) of 3.855, a B03_logFC (degron 4313 (SEQ ID NO 3456) 46F_47W_49P_50V_52G_53A_54Q_55F_67L) of 3.919 and a B03_logFC (degron 4314 (SEQ ID NO 3581) 46F_47W_49P_50V_52G_53A_54R_55F_67L) of 3.51. It also gave a B03_logFC (degron 4315 (SEQ ID NO 3601) 46F_47W_49P_50V_52G_53A_54S_55F_67L) of 3.475, a B03_logFC (degron 4316 (SEQ ID NO 3612) 46F_47W_49P_50V_52G_53A_54T_55F_67L) of 3.45 and a B03_logFC (degron 4321 (SEQ ID NO 3630) 46F_47Y_49D_50I_52G_53A_54C_55F_67L) of 3.415. For the same compound, the B03_logFC (degron 4326 (SEQ ID NO 3640) 46F_47Y_49D_50I_52G_53A_54H_55F_67L) was 3.376, the B03_logFC (degron 4331 (SEQ ID NO 3625) 46F_47Y_49D_50I_52G_53A_54N_55F_67L) was 3.424 and the B03_logFC (degron 4332 (SEQ ID NO 3553) 46F_47Y_49D_50I_52G_53A_54P_55F_67L) was 3.565. The B03_logFC (degron 4333 (SEQ ID NO 3559) 46F_47Y_49D_50I_52G_53A_54Q_55F_67L) was 3.554, the B03_logFC (degron 4380 (SEQ ID NO 3547) 46F_47Y_49E_50I_52G_53A_54A_55F_67L) was 3.592 and the B03_logFC (degron 4381 (SEQ ID NO 3540) 46F_47Y_49E_50I_52G_53A_54C_55F_67L) was 3.605. It also gave a B03_logFC (degron 4386 (SEQ ID NO 3592) 46F_47Y_49E_50I_52G_53A_54H_55F_67L) of 3.489, a B03_logFC (degron 4387 (SEQ ID NO 3573) 46F_47Y_49E_50I_52G_53A_54I_55F_67L) of 3.527 and a B03_logFC (degron 4388 (SEQ ID NO 3468) 46F_47Y_49E_50I_52G_53A_54K_55F_67L) of 3.839. The B03_logFC (degron 4389 (SEQ ID NO 3639) 46F_47Y_49E_50I_52G_53A_54L_55F_67L) was 3.379, the B03_logFC (degron 4390 (SEQ ID NO 3626) 46F_47Y_49E_50I_52G_53A_54M_55F_67L) was 3.419 and the B03_logFC (degron 4391 (SEQ ID NO 3508) 46F_47Y_49E_50I_52G_53A_54N_55F_67L) was 3.678. For the same compound, the B03_logFC (degron 4392 (SEQ ID NO 3489) 46F_47Y_49E_50I_52G_53A_54P_55F_67L) was 3.743, the B03_logFC (degron 4393 (SEQ ID NO 3562) 46F_47Y_49E_50I_52G_53A_54Q_55F_67L) was 3.548 and the B03_logFC (degron 4394 (SEQ ID NO 3644) 46F_47Y_49E_50I_52G_53A_54R_55F_67L) was 3.37. The B03_logFC (degron 4396 (SEQ ID NO 3452) 46F_47Y_49E_50I_52G_53A_54T_55F_67L) was 4.054, the B03_logFC (degron 4397 (SEQ ID NO 3543) 46F_47Y_49E_50I_52G_53A_54V_55F_67L) was 3.6 and the B03_logFC (degron 4421 (SEQ ID NO 3467) 46F_47Y_49E_50V_52G_53A_54C_55F_67L) was 3.846. For the same compound, the B03_logFC (degron 4426 (SEQ ID NO 3532) 46F_47Y_49E_50V_52G_53A_54H_55F_67L) was 3.622, the B03_logFC (degron 4427 (SEQ ID NO 3609) 46F_47Y_49E_50V_52G_53A_54I_55F_67L) was 3.453 and the B03_logFC (degron 4428 (SEQ ID NO 3518) 46F_47Y_49E_50V_52G_53A_54K_55F_67L) was 3.658. It also gave a B03_logFC (degron 4430 (SEQ ID NO 3623) 46F_47Y_49E_50V_52G_53A_54M_55F_67L) of 3.428, a B03_logFC (degron 4431 (SEQ ID NO 3461) 46F_47Y_49E_50V_52G_53A_54N_55F_67L) of 3.876 and a B03_logFC (degron 4432 (SEQ ID NO 3610) 46F_47Y_49E_50V_52G_53A_54P_55F_67L) of 3.453. The B03_logFC (degron 4433 (SEQ ID NO 3549) 46F_47Y_49E_50V_52G_53A_54Q_55F_67L) was 3.573, the B03_logFC (degron 4434 (SEQ ID NO 3475) 46F_47Y_49E_50V_52G_53A_54R_55F_67L) was 3.797 and the B03_logFC (degron 4435 (SEQ ID NO 3462) 46F_47Y_49E_50V_52G_53A_54S_55F_67L) was 3.865. The B03_logFC (degron 4436 (SEQ ID NO 3451) 46F_47Y_49E_50V_52G_53A_54T_55F_67L) was 4.14, the B03_logFC (degron 4437 (SEQ ID NO 3481) 46F_47Y_49E_50V_52G_53A_54V_55F_67L) was 3.786 and the B03_logFC (degron 4452 (SEQ ID NO 3566) 46F_47Y_49N_50I_52G_53A_54P_55F_67L) was 3.541. The B03_logFC (degron 4501 (SEQ ID NO 3527) 46F_47Y_49P_50I_52G_53A_54C_55F_67L) was 3.633, the B03_logFC (degron 4506 (SEQ ID NO 3556) 46F_47Y_49P_50I_52G_53A_54H_55F_67L) was 3.558 and the B03_logFC (degron 4511 (SEQ ID NO 3605) 46F_47Y_49P_50I_52G_53A_54N_55F_67L) was 3.463. The B03_logFC (degron 4513 (SEQ ID NO 3554) 46F_47Y_49P_50I_52G_53A_54Q_55F_67L) was 3.563.
